How the values were obtained:
[1] = general procedure: Fmoc solid-phase peptide synthesis; Wang resin; DIC/OxymaPure; details: whole synthesis, scale of the general procedure 3 grams resin, loading 0.7 mmol/g
[2] = general procedure: Fmoc solid-phase peptide synthesis; Wang; DIC/OxymaPure; details: whole synthesis; for crude HPLC purity / crude yield: scale of the general procedure 3 grams resin, loading 0.7 mmol/g; for crude yield: molar yield

## glucagon
[1]
  difficulty met: presence of the truncated sequences at the residues Gly4, Gln3 and Ser2 in the crude glucagon
[2]; run 1
  crude HPLC purity: 37%
  crude yield: 15%
  crude mass: 2.4 g
[2]; run 2
  crude HPLC purity: 8%
  crude yield: 3%
  crude mass: 1.7 g
[2]; run 3
  crude HPLC purity: 70%
  crude yield: 55%
  crude mass: 2.6 g

Reference: patent US20200399339 (published 2020)
